Experimental data as given in PubChem BioAssay AID540256 (National Center for Advancing Translational Sciences (NCATS), 2011).
Among all 300,000 compounds or so, about 3,700 (1.2%) were called active. The inconclusive results got no clear call from the source; some entries with a clear call stand among them for comparison. The call rests on the fitted dose curve; tested in HEK293 cells. Potencies beside an inconclusive call are fits to weak or partial responses and may not hold up.

test: qHTS for Inhibitors of binding or entry into cells for Lassa Virus; conditions: Lassa virus pseudotype entry inhibition, cell reporter; series mostly up to 37.9 µM; further: nearly all actives have a fitted effect of over 50% in size
Potency means the concentration at half of the fitted maximal effect.

SMILES	Potency
CCc1ccccc1NC(=O)c1cc(S(=O)(=O)N(CC)c2ccccc2)ccc1F	inconclusive: 0.891 µM [inhibitor, full curve, poor fit]
COc1cc(NC(=O)c2cc3ccccc3o2)ccc1NC(=O)c1ccco1	inactive
O=C(CSCC(=O)Nc1ccccc1)N/N=C/c1c(O)ccc2ccccc12	active: 25.9 µM
C=CCn1c(=O)c(C(=O)Nc2ccccc2S(N)(=O)=O)c(O)c2ccccc21	inconclusive: 15.8 µM [activator, partial curve]
O=C(CSc1ccc2ccccc2n1)c1ccc2c(c1)OCO2	inconclusive: 10.3 µM [activator, partial curve]
O=C(NC(=S)N1CCCC1)c1ccccc1Cl	inconclusive: 15.8 µM [activator, single point]
CC(C)c1ccc(/C=N/NC(=O)c2cccc(Cl)c2)cc1	inconclusive: 12.6 µM [inhibitor, single point]
CC(C)(C)OC(=O)N1CCC(CNC(=O)c2ccc(F)cc2F)CC1	inconclusive: 6.31 µM [inhibitor, partial curve]
Cc1c(C(=O)Nc2cccc3cccnc23)oc2ccccc12	inconclusive: 29.1 µM [inhibitor, single point]
CCCN(CCC)C1CCc2ccc(O)cc2C1 (configuration not stated)	inconclusive: 0.651 µM [activator, full curve, poor fit]
c1ccc(C2(c3ccccc3)CC2C2=NCCN2)cc1 (configuration not stated)	inconclusive: 32.6 µM [inhibitor, single point]
Cc1ccc(-n2ncc(-c3nnc(SCC(=O)NC4CCCC4)o3)c2N)cc1C	inconclusive: 35.5 µM [inhibitor, single point]
COc1ccc(NC(=O)CCN2CCN(c3cccc(Cl)c3)CC2)cc1	inconclusive: 2.82 µM [inhibitor, full curve]
CC(=O)c1cccc(NC(=O)C2CCN(S(=O)(=O)c3ccc(F)cc3)CC2)c1	inconclusive: 6.51 µM [activator, single point]
Cc1cccc(N2CCN(S(=O)(=O)c3ccc4c(c3)NC(=O)CO4)CC2)c1C	inconclusive: 3.55 µM [activator, single point]
Cc1cc(NC(=O)CCC(=O)N(CC(=O)NCC2CCCO2)Cc2ccc(F)cc2)no1 (configuration not stated)	inconclusive: 1 µM [inhibitor, single point]
COc1ccc(OCC(=O)Nc2nccs2)cc1	inconclusive: 10 µM [inhibitor, partial curve, poor fit]
Cc1ccc(C(=O)COC(=O)c2cc(-c3ccccc3)nc3ccccc23)cc1C	inactive
CC1(C)Cc2c(c(N3CCCC3)nc3sc4c(N5CCN(CCO)CC5)ncnc4c23)CO1	inconclusive: 20.6 µM [inhibitor, partial curve, poor fit]
CC(=O)c1ccc(NC(=O)C2CCC(CNS(=O)(=O)c3ccc(Br)s3)CC2)cc1 (configuration not stated)	inconclusive: 10 µM [activator, partial curve, poor fit]
CCC(C)(C)n1nnnc1C(c1cccnc1)N1CCC(Cc2ccccc2)CC1 (configuration not stated)	inconclusive: 14.1 µM [inhibitor, single point]
CC(C)C1N(c2ccccc2)C(N)=C(C#N)C1(C#N)C#N (configuration not stated)	inactive
CCOc1cccc(C2C(C(=O)c3ccco3)=C(O)C(=O)N2Cc2ccncc2)c1 (configuration not stated)	inconclusive: 1.41 µM [activator, partial curve, poor fit]

SMILES	Potency
O=C(NCCc1ccccc1)c1ccc(CSc2nc3cccnc3n2Cc2ccc(F)cc2)cc1	inconclusive: 12.6 µM [inhibitor, single point]
CSc1ccc(/C=N\NC(=O)CNc2ccc(C)cc2)cc1	active: 1.3 µM
CCC(=O)Nc1ccc(NC(=S)NC(=O)c2oc3ccccc3c2C)cc1	inconclusive: 29.1 µM [activator, single point]
CCOC(=O)CSc1nnc(-c2ccccc2NC(=O)c2ccccc2)o1	inactive
CCN(CC(=O)Nc1ccc(NC(C)=O)cc1)C(=O)c1cccc(-n2cccc2)c1	inconclusive: 0.891 µM [inhibitor, single point]
COc1cc([N+](=O)[O-])cc(/C=N/NC(=O)C(C)Nc2cccc3ccccc23)c1O (configuration not stated)	inactive
O=C(CSc1nnc(-c2cccnc2)o1)Nc1ccccc1F	inconclusive: 35.5 µM [inhibitor, partial curve, poor fit]
CCCCN(C(=O)c1ccc(NC(=O)C(C)C)cc1)c1ccccc1	inconclusive: 8.91 µM [inhibitor, partial curve, poor fit]
O=C(NCCCc1ccccc1)c1nn(-c2ccccc2F)nc1CO	inconclusive: 35.5 µM [inhibitor, single point]
Cc1ccc(C(=O)NNC(=O)CSc2nnc3c(n2)[nH]c2ccc(F)cc23)cc1	inactive
Cc1cc(=O)[nH]c2c1cnn2Cc1ccccc1	inactive
O=C(CN1CCN(c2ccccn2)CC1)Nc1ccc([N+](=O)[O-])cc1C(=O)Nc1ccccc1F	inconclusive: 3.98 µM [inhibitor, full curve]
O=C(/C=C/c1ccc(Br)cc1)c1ccc(NC(=O)c2ccco2)cc1	inactive
CCN(CC)S(=O)(=O)c1ccc(Cl)c(C(=O)Nc2cc(C)nn2-c2ccccc2)c1	inconclusive: 25.1 µM [inhibitor, partial curve, poor fit]
CCCC(C)NC(=O)c1ccc(OCc2ccc(Cl)cc2)c(OC)c1 (configuration not stated)	inconclusive: 12.6 µM [inhibitor, partial curve, poor fit]
COc1cccc(-c2ccc(CN3C(C)C(=O)N(Cc4cn(Cc5ccco5)nn4)CCS3(=O)=O)cc2)c1OC (configuration not stated)	inconclusive: 0.315 µM [activator, full curve, poor fit]
COc1ccc(/C=C(\C#N)C(=O)OCC(=O)Nc2ccc(-c3nc4ccc(C)cc4s3)cc2)cc1	inconclusive: 5.62 µM [inhibitor, single point]
COc1ccc(S(=O)(=O)N2CCN(C3CCN(Cc4ccccc4)CC3)CC2)cc1	inactive
Cc1ccc(CN2CCCn3nc(C(=O)NCCC(C)C)cc3C2=O)cc1	inactive
COc1ccc(S(N)(=O)=O)cc1C(=O)OCC1CCCCC1	inconclusive: 11.2 µM [activator, partial curve]
CN1CCN(C(=O)/C(=C/c2ccccc2Cl)NC(=O)c2ccccc2)CC1	inconclusive: 0.1 µM [inhibitor, full curve, poor fit]
O=C(NCc1ccc(F)cc1)C1CCN(C(=O)c2ccc(-n3ccc4ccccc43)s2)CC1	inconclusive: 12.6 µM [inhibitor, single point]
CN(c1ccc(C(=O)NC2CCCC2)cc1)S(=O)(=O)c1ccccc1	inconclusive: 35.5 µM [inhibitor, single point]

SMILES	Potency
CCOC(=O)c1c(NC(=O)CSc2c[nH]c3ccccc23)sc2c1CCCC2	inconclusive: 5.8 µM [inhibitor, full curve, poor fit]
O=C(Nc1ccc(Nc2ccccc2)cc1)c1ccccc1F	inactive
O=C(NCc1ccc2c(c1)OCO2)c1ccc(N2CCCCCC2)c([N+](=O)[O-])c1	inconclusive: 20.6 µM [inhibitor, partial curve]
O=C(/C=C\Nc1ccc2c(c1)OCO2)c1ccc(Cl)s1	inconclusive: 6.31 µM [inhibitor, full curve, poor fit]
COc1cccc(NC(=O)Cn2cc(C=O)c3ccccc32)c1	inconclusive: 1.26 µM [inhibitor, single point]
Cc1ccc(NC(=O)c2ccc(N/N=C/c3cccc(O)c3)c([N+](=O)[O-])c2)cc1	inconclusive: 35.5 µM [inhibitor, single point]
COC(=O)CCC(=O)Nc1c(C)n(C)n(-c2ccccc2)c1=O	inconclusive: 3.98 µM [activator, full curve, poor fit]
CCOc1ccc(CN2CCN(C(=O)c3cccc(F)c3)CC2)cc1	inconclusive: 23.1 µM [inhibitor, single point]
CCc1c(C#N)c(SCCC(=O)Nc2ccc(OC)cc2)nc2c1C(=O)CC(C)(C)C2	inconclusive: 10 µM [inhibitor, single point]
CCCOc1ccc(N2C(=O)CC(N(Cc3ccc(OC)cc3)C(=S)Nc3ccccc3)C2=O)cc1 (configuration not stated)	inactive
Cn1cc([N+](=O)[O-])c(C(=O)Nc2nc(-c3ccc(Cl)cc3)cs2)n1	inconclusive: 4.47 µM [inhibitor, partial curve, poor fit]
CCC(C)(C)n1nnnc1C(C(C)C)N(Cc1cccnc1)Cc1ccco1 (configuration not stated)	inactive
COc1ccccc1-c1csc(NC(=O)c2cc(-c3cccs3)nc3ccccc23)n1	inactive
COc1ccc(CCC(=O)N2CCN(c3ccc([N+](=O)[O-])cc3)CC2)cc1OC	inactive
CCOC(=O)N1CCC(N2CCCC(C(=O)c3cc(F)ccc3OC)C2)CC1 (configuration not stated)	inactive
COc1ccc2nc(N(Cc3cccnc3)C(=O)CCc3ccccc3)sc2c1	inactive
CCCCCc1ccc(OCCCC[n+]2ccc(C)cc2)c(CCCCC)c1	active: 4.47 µM
CCc1ccccc1OCCCCN1CCCC1	inconclusive: 0.562 µM [activator, partial curve, poor fit]
COc1ccccc1Nc1nc(-c2cccnc2)cs1	inactive
CCOc1ccccc1-c1nc(-c2ccc(-c3ccccc3)nc2OCC)no1	inconclusive: 17.8 µM [activator, single point]
O=C(Nc1ccccc1)Nc1ccccc1Br	inconclusive: 35.5 µM [inhibitor, single point]

Not a retest: 5 of the compounds above.
SMILES	Potency
Cc1cc(NC(=O)CCC(=O)N(CC(=O)NCC2CCCO2)Cc2ccc(F)cc2)no1 (configuration not stated)	inconclusive: 1 µM [inhibitor, single point]
COc1ccc(OCC(=O)Nc2nccs2)cc1	inconclusive: 10 µM [inhibitor, partial curve, poor fit]
Cc1ccc(C(=O)COC(=O)c2cc(-c3ccccc3)nc3ccccc23)cc1C	inactive
CC1(C)Cc2c(c(N3CCCC3)nc3sc4c(N5CCN(CCO)CC5)ncnc4c23)CO1	inconclusive: 20.6 µM [inhibitor, partial curve, poor fit]
CC(=O)c1ccc(NC(=O)C2CCC(CNS(=O)(=O)c3ccc(Br)s3)CC2)cc1 (configuration not stated)	inconclusive: 10 µM [activator, partial curve, poor fit]
